Results: paper PMC2243017
These are yes or no findings as the source states them, for the method shown. Binding can be weak; no strength is given. Tags and fused reporters may be left off the sequences shown. For some of these results: Binding seen in cells or lysates may run through a third protein.

Tests used:
[1] = target: T1, GST-JIP1 full-length fusion protein (UniProt Q9WVI9); assay: pull-down; lysates of transfected Cos1 cells (48 h; 20 mM Tris-HCl pH 7.4, 137 mM NaCl, 2 mM EDTA, 1% Triton-X100) mixed with glutathione-Sepharose beads 12 h at 4°C to bring down the GST fusion protein; associated transfected or endogenous proteins detected by western blot
T1 sequence: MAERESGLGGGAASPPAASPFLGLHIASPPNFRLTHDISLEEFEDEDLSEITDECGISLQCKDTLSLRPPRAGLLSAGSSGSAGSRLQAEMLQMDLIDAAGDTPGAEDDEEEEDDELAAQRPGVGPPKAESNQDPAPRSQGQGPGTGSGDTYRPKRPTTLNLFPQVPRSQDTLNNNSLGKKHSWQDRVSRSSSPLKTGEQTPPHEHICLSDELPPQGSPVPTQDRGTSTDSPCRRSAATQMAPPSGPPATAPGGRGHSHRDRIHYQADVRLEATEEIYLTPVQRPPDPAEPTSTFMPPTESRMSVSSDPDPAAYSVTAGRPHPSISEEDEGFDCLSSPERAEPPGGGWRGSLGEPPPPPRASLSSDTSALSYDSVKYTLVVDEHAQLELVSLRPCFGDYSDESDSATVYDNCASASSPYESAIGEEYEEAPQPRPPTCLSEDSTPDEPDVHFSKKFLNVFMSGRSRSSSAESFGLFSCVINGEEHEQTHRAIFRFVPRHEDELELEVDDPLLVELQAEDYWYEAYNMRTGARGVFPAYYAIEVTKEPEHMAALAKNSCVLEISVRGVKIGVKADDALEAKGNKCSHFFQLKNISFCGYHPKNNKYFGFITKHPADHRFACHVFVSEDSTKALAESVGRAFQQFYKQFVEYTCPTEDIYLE

[2] = target: T1, GST-JIP1 full-length fusion protein; assay: SEC; extracts of Cos1 cells transfected with pGST-JIP1 alone or with pHA-TAK1, pFlag-TAB1, pFlag-MKK7, pFlag-JNK, without or with pCEFL-HA-VRK2A or pCEFL-HA-VRK2B, fractionated on Superose 12 10/300 GL (50 mM Tris-HCl pH 7.5, 1 mM EDTA, 100 mM KCl); fractions analysed by western blot

| binding [1] | Substance | binding [2] |
| --- | --- | --- |
| binds | HA-VRK2B (K169E), kinase-dead (from UniProt Q86Y07-2) (enzyme) | – |
| binds | HA-VRK2A (K169E), kinase-dead (from UniProt Q86Y07-1) (enzyme) | – |

| Substance | binding [1] | binding [2] |
| --- | --- | --- |
| Flag-MKK7β1 (enzyme) | binds | binds |
